Assay results: the supplement of paper PMC10849652
The other results are listed elsewhere or left out.

Amino acid sequences for entries named in this document (tags omitted). A change or cut given only in a name is not applied to a line headed by its entry.
UniProt Q6P3S6: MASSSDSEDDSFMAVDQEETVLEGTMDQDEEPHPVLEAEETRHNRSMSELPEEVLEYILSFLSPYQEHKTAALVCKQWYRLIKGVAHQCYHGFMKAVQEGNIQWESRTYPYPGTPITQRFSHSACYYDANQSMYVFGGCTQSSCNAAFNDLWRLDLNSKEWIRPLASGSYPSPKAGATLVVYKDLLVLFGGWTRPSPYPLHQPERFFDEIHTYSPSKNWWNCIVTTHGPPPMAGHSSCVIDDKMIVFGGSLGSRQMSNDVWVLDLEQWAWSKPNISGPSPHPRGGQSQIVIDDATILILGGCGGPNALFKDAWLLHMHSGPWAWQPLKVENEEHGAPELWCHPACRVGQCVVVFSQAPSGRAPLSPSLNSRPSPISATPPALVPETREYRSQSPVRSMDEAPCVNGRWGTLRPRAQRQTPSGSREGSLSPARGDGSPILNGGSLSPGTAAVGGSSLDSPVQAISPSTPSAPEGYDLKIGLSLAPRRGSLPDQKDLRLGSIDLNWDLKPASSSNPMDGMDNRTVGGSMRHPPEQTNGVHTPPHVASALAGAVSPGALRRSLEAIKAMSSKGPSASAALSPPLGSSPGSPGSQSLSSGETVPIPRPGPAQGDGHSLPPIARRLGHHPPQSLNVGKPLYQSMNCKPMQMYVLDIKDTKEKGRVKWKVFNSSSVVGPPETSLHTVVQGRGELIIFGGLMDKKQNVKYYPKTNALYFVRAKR
UniProt Q02790: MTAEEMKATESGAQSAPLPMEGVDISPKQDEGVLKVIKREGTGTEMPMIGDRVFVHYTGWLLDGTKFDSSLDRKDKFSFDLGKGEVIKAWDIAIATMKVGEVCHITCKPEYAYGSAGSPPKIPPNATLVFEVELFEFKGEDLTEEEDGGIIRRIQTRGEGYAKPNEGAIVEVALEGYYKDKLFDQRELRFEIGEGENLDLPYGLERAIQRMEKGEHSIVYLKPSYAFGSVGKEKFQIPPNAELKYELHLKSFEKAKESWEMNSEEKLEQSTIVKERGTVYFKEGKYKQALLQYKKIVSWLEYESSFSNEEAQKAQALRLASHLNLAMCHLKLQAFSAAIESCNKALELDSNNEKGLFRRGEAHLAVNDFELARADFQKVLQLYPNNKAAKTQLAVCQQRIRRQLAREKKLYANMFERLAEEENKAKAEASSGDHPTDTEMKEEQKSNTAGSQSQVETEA
UniProt Q9NRD1: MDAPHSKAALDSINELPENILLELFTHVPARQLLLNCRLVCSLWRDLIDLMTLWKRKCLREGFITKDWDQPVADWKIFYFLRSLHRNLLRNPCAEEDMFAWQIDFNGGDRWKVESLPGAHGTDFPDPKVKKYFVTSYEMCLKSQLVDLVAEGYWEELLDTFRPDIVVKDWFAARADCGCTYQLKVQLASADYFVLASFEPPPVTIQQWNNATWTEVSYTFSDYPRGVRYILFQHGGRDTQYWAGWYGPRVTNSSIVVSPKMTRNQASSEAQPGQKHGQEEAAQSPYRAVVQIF
UniProt P02675: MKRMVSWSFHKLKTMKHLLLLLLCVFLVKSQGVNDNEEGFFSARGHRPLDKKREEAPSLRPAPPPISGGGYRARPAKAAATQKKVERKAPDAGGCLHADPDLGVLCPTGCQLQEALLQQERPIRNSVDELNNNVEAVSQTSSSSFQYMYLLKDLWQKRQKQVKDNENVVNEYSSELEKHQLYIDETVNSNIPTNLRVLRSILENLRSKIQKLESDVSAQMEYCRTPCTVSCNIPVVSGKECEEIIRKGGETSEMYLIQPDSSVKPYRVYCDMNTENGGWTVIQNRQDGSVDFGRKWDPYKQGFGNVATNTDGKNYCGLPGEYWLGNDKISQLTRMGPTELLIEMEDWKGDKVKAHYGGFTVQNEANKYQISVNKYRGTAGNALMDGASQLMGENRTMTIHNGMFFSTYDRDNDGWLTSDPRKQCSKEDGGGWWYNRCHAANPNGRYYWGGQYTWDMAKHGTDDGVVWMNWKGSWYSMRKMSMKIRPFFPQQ
UniProt Q9NYF3: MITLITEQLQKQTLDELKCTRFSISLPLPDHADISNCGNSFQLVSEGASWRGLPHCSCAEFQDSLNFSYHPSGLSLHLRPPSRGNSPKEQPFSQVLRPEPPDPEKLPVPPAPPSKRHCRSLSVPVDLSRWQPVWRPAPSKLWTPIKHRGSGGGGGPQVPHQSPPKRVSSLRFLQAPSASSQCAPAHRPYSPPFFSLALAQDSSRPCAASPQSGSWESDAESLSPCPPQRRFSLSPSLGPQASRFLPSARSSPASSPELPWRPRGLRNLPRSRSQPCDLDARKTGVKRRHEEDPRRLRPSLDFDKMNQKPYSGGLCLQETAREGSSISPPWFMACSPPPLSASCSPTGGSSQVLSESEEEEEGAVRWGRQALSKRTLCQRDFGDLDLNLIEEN
UniProt Q7L8L6: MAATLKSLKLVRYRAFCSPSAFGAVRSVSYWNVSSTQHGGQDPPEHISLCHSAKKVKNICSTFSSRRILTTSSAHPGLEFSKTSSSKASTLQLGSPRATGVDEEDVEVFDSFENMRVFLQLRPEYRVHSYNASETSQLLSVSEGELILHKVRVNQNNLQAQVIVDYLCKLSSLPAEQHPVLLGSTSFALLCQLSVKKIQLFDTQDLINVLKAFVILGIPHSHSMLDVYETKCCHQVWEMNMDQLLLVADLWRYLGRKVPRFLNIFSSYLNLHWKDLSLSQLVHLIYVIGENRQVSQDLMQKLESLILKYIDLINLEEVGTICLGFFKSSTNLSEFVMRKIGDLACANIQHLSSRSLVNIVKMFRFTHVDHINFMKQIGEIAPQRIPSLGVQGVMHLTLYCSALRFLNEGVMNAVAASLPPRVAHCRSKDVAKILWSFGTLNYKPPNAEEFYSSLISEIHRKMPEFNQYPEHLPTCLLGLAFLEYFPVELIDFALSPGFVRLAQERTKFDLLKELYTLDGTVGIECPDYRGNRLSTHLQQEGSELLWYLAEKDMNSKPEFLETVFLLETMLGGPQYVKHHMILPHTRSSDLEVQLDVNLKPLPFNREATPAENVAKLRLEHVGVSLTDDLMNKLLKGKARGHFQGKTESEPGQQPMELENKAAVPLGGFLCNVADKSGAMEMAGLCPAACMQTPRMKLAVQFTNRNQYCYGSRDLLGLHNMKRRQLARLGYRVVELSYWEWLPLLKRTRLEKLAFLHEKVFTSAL
UniProt P39748, whole entry, looked up: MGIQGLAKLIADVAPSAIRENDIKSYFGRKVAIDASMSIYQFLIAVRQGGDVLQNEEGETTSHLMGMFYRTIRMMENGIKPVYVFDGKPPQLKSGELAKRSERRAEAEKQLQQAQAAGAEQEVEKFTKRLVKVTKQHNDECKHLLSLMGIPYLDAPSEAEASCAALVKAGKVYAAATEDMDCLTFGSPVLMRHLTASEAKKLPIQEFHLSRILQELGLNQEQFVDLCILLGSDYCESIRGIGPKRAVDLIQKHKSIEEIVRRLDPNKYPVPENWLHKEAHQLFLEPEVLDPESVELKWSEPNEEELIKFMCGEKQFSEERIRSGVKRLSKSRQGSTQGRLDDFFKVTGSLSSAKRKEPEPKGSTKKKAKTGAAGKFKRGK
UniProt O43427: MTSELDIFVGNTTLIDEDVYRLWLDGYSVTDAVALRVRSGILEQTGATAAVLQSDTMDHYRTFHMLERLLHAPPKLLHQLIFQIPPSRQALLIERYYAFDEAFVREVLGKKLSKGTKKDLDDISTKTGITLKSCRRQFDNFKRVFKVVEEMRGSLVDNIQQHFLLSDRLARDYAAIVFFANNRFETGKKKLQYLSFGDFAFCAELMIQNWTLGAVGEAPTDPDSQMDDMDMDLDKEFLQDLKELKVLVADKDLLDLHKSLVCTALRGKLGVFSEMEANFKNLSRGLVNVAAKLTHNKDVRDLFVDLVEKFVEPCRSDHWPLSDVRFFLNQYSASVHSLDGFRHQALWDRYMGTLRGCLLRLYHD
UniProt A2RU67: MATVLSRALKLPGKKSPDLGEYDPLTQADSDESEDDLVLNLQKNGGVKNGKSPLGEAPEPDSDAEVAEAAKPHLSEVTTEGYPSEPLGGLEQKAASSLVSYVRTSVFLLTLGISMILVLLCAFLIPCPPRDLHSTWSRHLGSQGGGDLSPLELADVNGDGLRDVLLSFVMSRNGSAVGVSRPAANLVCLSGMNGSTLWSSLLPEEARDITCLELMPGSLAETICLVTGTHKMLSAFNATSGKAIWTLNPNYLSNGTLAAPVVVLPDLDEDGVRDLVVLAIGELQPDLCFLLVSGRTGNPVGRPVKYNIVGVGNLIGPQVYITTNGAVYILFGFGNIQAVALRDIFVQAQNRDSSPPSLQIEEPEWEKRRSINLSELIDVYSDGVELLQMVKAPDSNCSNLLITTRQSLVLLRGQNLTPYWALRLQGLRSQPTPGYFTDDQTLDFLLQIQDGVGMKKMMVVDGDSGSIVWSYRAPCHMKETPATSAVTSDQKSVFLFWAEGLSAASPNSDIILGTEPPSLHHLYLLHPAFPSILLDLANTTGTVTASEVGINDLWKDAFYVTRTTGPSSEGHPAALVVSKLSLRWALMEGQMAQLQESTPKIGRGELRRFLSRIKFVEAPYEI
UniProt Q9UHY8: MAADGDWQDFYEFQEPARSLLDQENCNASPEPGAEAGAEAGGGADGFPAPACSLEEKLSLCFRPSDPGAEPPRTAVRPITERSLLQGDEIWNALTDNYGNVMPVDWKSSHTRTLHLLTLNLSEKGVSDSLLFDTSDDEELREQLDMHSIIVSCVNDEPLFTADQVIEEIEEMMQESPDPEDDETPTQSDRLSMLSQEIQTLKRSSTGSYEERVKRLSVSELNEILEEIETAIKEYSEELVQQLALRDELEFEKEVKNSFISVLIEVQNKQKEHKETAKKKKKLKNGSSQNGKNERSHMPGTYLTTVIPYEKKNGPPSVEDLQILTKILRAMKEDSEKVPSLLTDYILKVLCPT
UniProt O14526: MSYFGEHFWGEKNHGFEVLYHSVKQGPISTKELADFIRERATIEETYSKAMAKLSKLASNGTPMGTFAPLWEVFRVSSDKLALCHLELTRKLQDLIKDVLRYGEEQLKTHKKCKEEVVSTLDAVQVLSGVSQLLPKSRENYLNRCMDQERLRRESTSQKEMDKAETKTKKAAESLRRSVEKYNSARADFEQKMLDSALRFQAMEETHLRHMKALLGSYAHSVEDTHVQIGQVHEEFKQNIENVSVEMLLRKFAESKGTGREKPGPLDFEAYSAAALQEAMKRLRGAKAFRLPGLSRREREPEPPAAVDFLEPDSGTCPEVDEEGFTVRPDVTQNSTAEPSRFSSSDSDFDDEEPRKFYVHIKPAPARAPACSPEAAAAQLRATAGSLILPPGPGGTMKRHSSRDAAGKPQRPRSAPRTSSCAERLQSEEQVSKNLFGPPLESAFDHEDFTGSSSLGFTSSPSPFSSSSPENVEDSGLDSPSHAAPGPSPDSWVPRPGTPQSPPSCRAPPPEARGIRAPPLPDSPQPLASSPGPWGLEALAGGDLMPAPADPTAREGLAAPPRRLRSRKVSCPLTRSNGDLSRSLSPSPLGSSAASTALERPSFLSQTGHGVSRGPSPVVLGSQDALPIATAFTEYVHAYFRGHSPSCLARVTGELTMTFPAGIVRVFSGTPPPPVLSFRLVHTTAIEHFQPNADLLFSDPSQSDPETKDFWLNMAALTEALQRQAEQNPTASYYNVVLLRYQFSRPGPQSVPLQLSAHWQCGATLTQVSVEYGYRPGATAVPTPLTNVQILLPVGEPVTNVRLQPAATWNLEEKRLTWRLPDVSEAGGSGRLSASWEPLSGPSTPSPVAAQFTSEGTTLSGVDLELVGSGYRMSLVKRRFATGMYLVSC
UniProt Q96KR6: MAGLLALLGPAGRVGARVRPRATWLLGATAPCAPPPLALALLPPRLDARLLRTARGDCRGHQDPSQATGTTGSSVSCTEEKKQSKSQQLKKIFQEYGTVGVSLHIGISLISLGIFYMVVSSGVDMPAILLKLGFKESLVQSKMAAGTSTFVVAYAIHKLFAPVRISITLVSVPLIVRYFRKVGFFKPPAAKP
UniProt Q8NFG4: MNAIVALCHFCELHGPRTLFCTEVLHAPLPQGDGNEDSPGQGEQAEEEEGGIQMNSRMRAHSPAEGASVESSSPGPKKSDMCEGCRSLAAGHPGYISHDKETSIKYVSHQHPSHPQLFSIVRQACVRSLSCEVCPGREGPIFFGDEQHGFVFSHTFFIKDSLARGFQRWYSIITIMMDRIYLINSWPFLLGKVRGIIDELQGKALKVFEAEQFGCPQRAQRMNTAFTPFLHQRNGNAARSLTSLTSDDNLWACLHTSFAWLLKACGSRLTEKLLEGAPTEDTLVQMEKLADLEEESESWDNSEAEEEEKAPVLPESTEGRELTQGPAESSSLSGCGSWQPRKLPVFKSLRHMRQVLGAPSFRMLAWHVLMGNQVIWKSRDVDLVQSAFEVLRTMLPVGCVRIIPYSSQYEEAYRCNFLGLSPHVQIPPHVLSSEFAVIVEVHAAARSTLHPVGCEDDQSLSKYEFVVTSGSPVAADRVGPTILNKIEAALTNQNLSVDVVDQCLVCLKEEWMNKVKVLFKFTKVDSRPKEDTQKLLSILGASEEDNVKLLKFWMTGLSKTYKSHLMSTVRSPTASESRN

How the values were obtained:
Assay in all cases: log2 fold change, soluble protein after heating vs DMSO (PISA); higher = thermal stabilisation; K562 cells, 10 uM, 30 min; active = over 0.2 and 3.5 SD of the protein, either way, in both replicates (recomputed)
[1] = compound: CC1=C(C=C(C=C1)NC(=O)C2=CC(=CC=C2)C(C)(C)C#N)NC3=CC4=C(C=C3)N=CN(C4=O)C
How it was run: (§1)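 K562 cells at 2×10^6 cells/mL were exposed to 10 μM compound for 30 min, then aliquots were heated for 3 min across 48°C-58°C, pooled, and extracted in PBS containing 0.5% NP-40 at 4°C. The supernatant after 21,000xg for 90 min was taken as soluble protein and measured by TMTpro 16plex LC-MS/MS with channel sums equalised. Thermal stability is reported relative to control samples, with values from duplicates. Fold changes are given on a log2 scale.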

[2] = compound: CC1=C(C=C(C=C1)NC(=O)C2=CC(=CC=C2)N(C)C)NC(=O)C3=CC=C(C=C3)O
How it was run: as §1

[3] = compound: CC1=CC=C(C=C1)SC2=C3C=C(SC3=CN=C2)C(=O)N
How it was run: as §1

[4] = compound: CC1=NC(=CC=C1)C2=C(N=C(N2)C(C)(C)C)C3=CC4=NC=CN=C4C=C3
How it was run: as §1

Nexturastat A = compound: CCCCN(Cc1ccc(C(=O)NO)cc1)C(=O)Nc1ccccc1 [Nexturastat A]
How it was run: as §1

vemurafenib = compound: CCCS(=O)(=O)Nc1ccc(F)c(C(=O)c2c[nH]c3ncc(-c4ccc(Cl)cc4)cc23)c1F [vemurafenib]
How it was run: as §1

[5] = compound: CCCS(=O)(=O)Nc1ccc(F)c(C(=O)c2c[nH]c3ncc(Cl)cc23)c1F
How it was run: as §1

[6] = compound: CCCc1cc(C)[nH]c(=O)c1CNC(=O)c1cc(-c2ccnc(N3CCN(C)CC3)c2)cc2c1cnn2C(C)C
How it was run: as §1

givinostat = compound: CCN(CC)Cc1ccc2cc(COC(=O)Nc3ccc(C(=O)NO)cc3)ccc2c1 [givinostat]
How it was run: as §1

barasertib = compound: CCN(CCCOc1ccc2c(Nc3cc(CC(=O)Nc4cccc(F)c4)[nH]n3)ncnc2c1)CCOP(=O)(O)O [barasertib]
How it was run: as §1

[7] = compound: CC[C@@H]1C(=O)N(C)c2cnc(Nc3ccc(C(=O)NC4CCN(C)CC4)cc3OC)nc2N1C1CCCC1
How it was run: as §1

volasertib = compound: CC[C@@H]1C(=O)N(C)c2cnc(Nc3ccc(C(=O)N[C@H]4CC[C@H](N5CCN(CC6CC6)CC5)CC4)cc3OC)nc2N1C(C)C [volasertib]
How it was run: as §1

[8] = compound: CC[C@H](C)N1C=C(C2=C(C=C(C=C21)C3=CN=C(C=C3)N4CCNCC4)C(=O)NCC5=C(C=C(NC5=O)C)C)C
How it was run: as §1

epoxomicin = compound: CC[C@H](C)[C@@H](C(=O)N[C@@H]([C@@H](C)O)C(=O)N[C@@H](CC(C)C)C(=O)[C@]1(CO1)C)NC(=O)[C@H]([C@@H](C)CC)N(C)C(=O)C [epoxomicin]
How it was run: as §1

[9] = compound: CCn1cc(-c2ccnc3[nH]c(-c4cccc(CN(C)C)c4)cc23)c(-c2ccc(NC(=O)N(C)C)cc2)n1
How it was run: as §1

[10] = compound: CN(C)CC(=O)Nc1ccc2[nH]c(=O)c3ccccc3c2c1
How it was run: as §1

[11] = compound: CN1C2=C(C3=C1C(=O)N(N=C3)CC4=CC(=CC=C4)N)SC(=C2)S(=O)C
How it was run: as §1

[12] = compound: CN1CCC(CNc2ccc3ncc(-c4cccc(OC(F)(F)F)c4)n3n2)CC1
How it was run: as §1

[13] = compound: CCn1c(C(=O)N(C2CC2)C2CC2)cc2c3c(ncn3C)c(Nc3cc(C)n(C)n3)nc21
How it was run: as §1

rosiglitazone = compound: CN(CCOC1=CC=C(C=C1)C[C@H]2C(=O)NC(=O)S2)C3=CC=CC=N3 (racemic) [rosiglitazone]
How it was run: as §1

Measured: log2 fold change

FBXO42 (UniProt Q6P3S6)
inactive: [1] -0.033 | [2] 0.164 | [3] -0.038 | [4] 0.04 | Nexturastat A -0.072 | vemurafenib -0.086 | [5] 0.083 | [6] -0.025 | givinostat 0.09 | barasertib 0.015 | [7] 0.093 | volasertib 0.011 | [8] 0.028 | epoxomicin 0.056 | [9] 0.002 | [10] -0.019 | [11] 0.032 | [12] 0.021

FMR1 (UniProt Q06787)
inactive: [1] -0.023 | [2] 0.036 | [3] -0.066 | [4] -0.163 | [5] -0.094 | [6] -0.068 | givinostat -0.203 | [7] -0.068 | volasertib -0.173 | [9] 0.088 | [12] 0.279

FKBP4 (UniProt Q02790)
inactive: [1] 0.032 | [2] -0.037 | [3] 0.015 | [4] 0.045 | Nexturastat A -0.027 | vemurafenib 0.032 | [5] 0.06 | [6] -0.009 | givinostat 0.012 | barasertib 0.013 | [7] -0.066 | volasertib -0.136 | [8] 0.07 | epoxomicin 0.033 | [9] -0.051 | [10] 0.019 | [11] -0.04 | [12] -0.119

FBXO6 (UniProt Q9NRD1)
active: [7] 0.683 | volasertib 0.696 | [12] 0.366
inactive: [1] 0.006 | [2] 0.006 | [3] 0.048 | [4] 0.026 | Nexturastat A -0.04 | vemurafenib 0.044 | [5] 0.014 | [6] -0.01 | givinostat -0.093 | barasertib -0.008 | [8] 0.096 | epoxomicin -0.029 | [9] -0.038 | [10] 0.036 | [11] 0.005

FGB (UniProt P02675)
inactive: [1] -0.042 | [2] 0.225 | vemurafenib 0.154 | [6] -0.239 | givinostat -0.008 | barasertib -0.011 | [7] 0.221 | [8] -0.136 | [13] -0.011 | [9] -0.076 | [10] -0.124 | rosiglitazone 0.089 | [12] -0.093

FAM53C (UniProt Q9NYF3)
inactive: [1] -0.054 | [2] -0.075 | [3] 0.01 | [5] -0.025 | [7] -0.074 | volasertib -0.05 | [8] -0.098 | [9] -0.146 | [12] -0.2

FASTKD5 (UniProt Q7L8L6)
inactive: [1] 0.282 | [2] -0.125 | [3] -0.115 | Nexturastat A -0.118 | vemurafenib 0.17 | [5] -0.221 | givinostat 0.162 | barasertib 0.098 | volasertib 0.048 | epoxomicin -0.094 | [13] -0.149 | [9] -0.021 | [10] 0.198 | rosiglitazone 0.102 | [11] 0.127 | [12] -0.207

FEN1 (UniProt P39748)
inactive: [1] 0.018 | [2] -0.08 | [3] 0.045 | [4] 0.057 | Nexturastat A -0.194 | vemurafenib 0.121 | [5] 0.022 | [6] -0.03 | givinostat 0.096 | barasertib 0.088 | [7] -0.073 | volasertib -0.037 | [8] 0.086 | epoxomicin 0.109 | [9] -0.174 | [10] 0.155 | [11] -0.057 | [12] -0.283

FDFT1 (UniProt P37268)
inactive: [1] -0.008 | [2] 0.01 | [3] 0.063 | [4] -0.034 | Nexturastat A 0.01 | vemurafenib 0 | [5] 0.092 | [6] 0.1 | givinostat -0.018 | barasertib 0.009 | [7] -0.067 | volasertib -0.151 | [8] -0.01 | epoxomicin 0.06 | [9] -0.06 | [10] 0.003 | [11] -0.059 | [12] 0.067

FIBP (UniProt O43427)
inactive: [1] 0.046 | [2] -0.009 | [3] 0.001 | [4] 0 | Nexturastat A -0.009 | vemurafenib 0.03 | [5] 0.089 | [6] 0 | givinostat -0.009 | barasertib -0.071 | [7] 0.164 | volasertib -0.093 | epoxomicin -0.023 | [9] -0.023 | [10] -0.043 | [11] -0.072 | [12] -0.229

FAM234B (UniProt A2RU67)
inactive: [1] -0.017 | [2] -0.085 | [3] -0.018 | [4] -0.013 | vemurafenib 0.082 | [5] -0.026 | givinostat 0.021 | barasertib -0.091 | volasertib 0.032 | [13] 0.077 | [10] -0.141 | rosiglitazone -0.18

FEZ2 isoform 2 (UniProt Q9UHY8)
inactive: [1] 0.002 | [2] 0.006 | [3] -0.148 | [4] -0.092 | vemurafenib -0.036 | [5] 0 | [6] 0.015 | barasertib -0.082 | volasertib 0.007 | [8] -0.019 | [9] 0.002 | [10] 0.041 | rosiglitazone 0.227 | [11] -0.007 | [12] 0.043

FCHO1 (UniProt O14526)
active: volasertib -0.768
inactive: [1] 0.103 | [2] -0.023 | [3] 0.004 | [4] -0.016 | Nexturastat A 0.053 | vemurafenib 0.254 | [5] 0.037 | [6] -0.003 | givinostat 0.073 | [7] -0.186 | [8] 0.168 | epoxomicin 0.05 | [10] 0.112 | [11] 0.025

FNBP1L (UniProt Q5T0N5)
inactive: [1] -0.024 | [2] 0.037 | [3] -0.002 | [4] 0.033 | vemurafenib 0.065 | [5] -0.014 | [6] 0.036 | givinostat 0.202 | barasertib 0.012 | volasertib 0.062 | [8] -0.168 | [13] -0.133 | [9] -0.032 | [10] -0.182 | rosiglitazone -0.17 | [11] 0.051 | [12] 0.04

FNTA (UniProt P49354)
active: volasertib 0.362
inactive: [1] -0.035 | [2] -0.009 | [3] 0.048 | [4] -0.011 | Nexturastat A -0.063 | vemurafenib -0.045 | [5] -0.047 | [6] 0.007 | givinostat -0.052 | barasertib 0.007 | [7] 0.123 | [8] 0.006 | epoxomicin 0.019 | [9] -0.074 | [10] 0.012 | [11] -0.03 | [12] 0.015

FBRS (UniProt J3KNZ9)
inactive: [1] -0.229 | [3] 0.403 | [4] -0.174 | Nexturastat A 0.554 | vemurafenib 0.074 | [5] -0.092 | volasertib -0.39 | [8] -0.046 | epoxomicin 0.196 | [9] 0.173 | [10] 0.159 | [12] -0.044

FAM210B (UniProt Q96KR6)
inactive: [1] 0.042 | [2] -0.033 | [4] 0.029 | Nexturastat A 0.067 | vemurafenib 0.034 | givinostat 0.013 | barasertib 0.002 | [7] -0.012 | [8] -0.026 | epoxomicin -0.05 | [13] -0.019 | [9] 0.016 | [10] 0.018 | rosiglitazone -0.011 | [11] -0.06 | [12] 0.14

FAT4 (UniProt Q6V0I7)
inactive: [1] 0.057 | [2] 0.043 | vemurafenib -0.235 | [6] -0.085 | [7] 0.033 | [8] -0.047 | [9] -0.011 | [10] -0.182 | [12] -0.04

FBXO38 (UniProt Q6PIJ6)
inactive: [1] 0.146 | [2] 0.077 | [3] -0.033 | [4] 0.082 | Nexturastat A -0.111 | vemurafenib 0.059 | [5] -0.17 | givinostat 0.007 | barasertib -0.03 | [7] -0.104 | volasertib -0.277 | epoxomicin -0.136 | [13] 0.062 | [10] 0.03 | rosiglitazone -0.044 | [11] 0.043

FLCN (UniProt Q8NFG4)
inactive: [1] -0.106 | [2] 0.097 | [4] -0.031 | Nexturastat A 0.008 | vemurafenib 0.076 | [6] -0.065 | givinostat -0.035 | [8] 0.069 | epoxomicin -0.031 | [13] -0.082 | [9] 0.076 | [10] 0.033 | [11] 0.021 | [12] 0.115

FLII isoform 2 (UniProt Q13045)
inactive: [1] 0.068 | [2] -0.002 | [3] 0.171 | Nexturastat A -0.075 | [5] 0.011 | volasertib -0.01 | epoxomicin -0.025

Pulled one by one from the list above, 2 records:
FBXO38 (UniProt Q6PIJ6)
inactive: [1] 0.146 | [2] 0.077 | [3] -0.033 | [4] 0.082 | Nexturastat A -0.111 | vemurafenib 0.059 | [5] -0.17 | givinostat 0.007 | barasertib -0.03 | [7] -0.104 | volasertib -0.277 | epoxomicin -0.136 | [13] 0.062 | [10] 0.03 | rosiglitazone -0.044 | [11] 0.043

FNTA (UniProt P49354)
active: volasertib 0.362
inactive: [1] -0.035 | [2] -0.009 | [3] 0.048 | [4] -0.011 | Nexturastat A -0.063 | vemurafenib -0.045 | [5] -0.047 | [6] 0.007 | givinostat -0.052 | barasertib 0.007 | [7] 0.123 | [8] 0.006 | epoxomicin 0.019 | [9] -0.074 | [10] 0.012 | [11] -0.03 | [12] 0.015
